These are yes or no findings as the source states them, for the method shown. Binding seen in cells or lysates may run through a third protein. A yes stands for co-enrichment or nearness to the bait. Other partners may have been found.

Amino acid sequences for entries named in this document (tags omitted).
UniProt Q03018: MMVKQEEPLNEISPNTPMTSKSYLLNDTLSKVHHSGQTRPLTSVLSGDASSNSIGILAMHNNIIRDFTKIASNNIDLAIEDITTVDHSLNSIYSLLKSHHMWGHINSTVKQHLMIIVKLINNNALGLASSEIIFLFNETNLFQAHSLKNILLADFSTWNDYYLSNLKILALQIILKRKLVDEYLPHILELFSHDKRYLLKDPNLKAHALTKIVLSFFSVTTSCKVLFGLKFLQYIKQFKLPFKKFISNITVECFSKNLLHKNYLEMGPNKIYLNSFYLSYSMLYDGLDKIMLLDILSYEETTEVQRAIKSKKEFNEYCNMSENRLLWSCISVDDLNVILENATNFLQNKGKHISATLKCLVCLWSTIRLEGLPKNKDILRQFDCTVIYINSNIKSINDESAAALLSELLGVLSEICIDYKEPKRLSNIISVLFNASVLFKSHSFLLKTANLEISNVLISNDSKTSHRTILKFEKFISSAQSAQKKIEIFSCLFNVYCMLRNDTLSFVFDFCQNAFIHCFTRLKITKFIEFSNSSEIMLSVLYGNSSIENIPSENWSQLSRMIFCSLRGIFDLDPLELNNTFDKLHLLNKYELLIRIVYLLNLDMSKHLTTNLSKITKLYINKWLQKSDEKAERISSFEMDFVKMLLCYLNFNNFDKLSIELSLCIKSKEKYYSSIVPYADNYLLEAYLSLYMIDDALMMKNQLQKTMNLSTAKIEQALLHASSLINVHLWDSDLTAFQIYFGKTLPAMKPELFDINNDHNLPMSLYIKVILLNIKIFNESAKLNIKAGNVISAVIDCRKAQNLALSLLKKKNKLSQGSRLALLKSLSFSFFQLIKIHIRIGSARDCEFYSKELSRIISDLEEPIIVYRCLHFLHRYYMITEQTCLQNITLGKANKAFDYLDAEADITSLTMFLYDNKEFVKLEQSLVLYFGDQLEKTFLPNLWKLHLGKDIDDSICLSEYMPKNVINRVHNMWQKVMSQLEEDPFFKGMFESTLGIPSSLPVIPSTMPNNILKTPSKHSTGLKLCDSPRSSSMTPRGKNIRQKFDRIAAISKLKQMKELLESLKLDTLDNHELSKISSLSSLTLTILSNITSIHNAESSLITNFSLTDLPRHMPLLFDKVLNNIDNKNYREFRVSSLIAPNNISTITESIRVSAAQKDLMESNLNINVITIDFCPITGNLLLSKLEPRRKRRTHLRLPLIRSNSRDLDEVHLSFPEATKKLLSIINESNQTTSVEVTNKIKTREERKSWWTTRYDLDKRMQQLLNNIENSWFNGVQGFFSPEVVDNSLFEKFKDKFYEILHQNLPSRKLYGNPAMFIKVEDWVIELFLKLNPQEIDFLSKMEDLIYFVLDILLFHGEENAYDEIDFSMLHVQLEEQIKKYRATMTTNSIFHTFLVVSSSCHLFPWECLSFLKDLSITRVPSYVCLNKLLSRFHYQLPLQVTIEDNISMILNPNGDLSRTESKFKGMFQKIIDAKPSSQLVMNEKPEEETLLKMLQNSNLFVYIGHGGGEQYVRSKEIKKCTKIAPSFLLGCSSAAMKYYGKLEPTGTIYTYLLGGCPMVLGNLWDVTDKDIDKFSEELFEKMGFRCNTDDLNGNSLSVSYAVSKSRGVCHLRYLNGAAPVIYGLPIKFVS

B1: Mck1 (protein, UniProt P21965 1-375)
chain: MSTEEQNGVPLQRGSEFIADDVTSNKSNNTRRMLVKEYRKIGRGAFGTVVQAYLTQDKKNWLGPFAIKKVPAHTEYKSRELQILRIADHPNIVKLQYFFTHLSPQDNKVYQHLAMECLPETLQIEINRYVTNKLEMPLKHIRLYTYQIARGMLYLHGLGVCHRDIKPSNVLVDPETGVLKICDFGSAKKLEHNQPSISYICSRFYRAPELIIGCTQYTTQIDIWGLGCVMGEMLIGKAIFQGQEPLLQLREIAKLLGPPDKRFIFFSNPAYDGPLFSKPLFSGSSQQRFEKYFGHSGPDGIDLLMKILVYEPQQRLSPRRILAHQFFNELRNDDTFLPRGFTEPIKLPNLFDFNDFELQILGEFADKIKPTKVAE
B2: Mrt4 (protein, UniProt P33201 1-236)
chain: MPRSKRSKLVTLAQTDKKGRENKERIFDEVREALDTYRYVWVLHLDDVRTPVLQEIRTSWAGSKLIMGKRKVLQKALGEKREEEYKENLYQLSKLCSGVTGLLFTDEDVNTVKEYFKSYVRSDYSRPNTKAPLTFTIPEGIVYSRGGQIPAEEDVPMIHSLEPTMRNKFEIPTKIKAGKITIDSPYLVCTEGEKLDVRQALILKQFGIAASEFKVKVSAYYDNDSSTVESTNINME
B3: Spt6 (protein, UniProt P23615 1-1451)
chain: MEETGDSKLVPRDEEEIVNDNDETKAPSEEEEGEDVFDSSEEDEDIDEDEDEARKVQEGFIVNDDDENEDPGTSISKKRRKHKRREREEDDRLSEDDLDLLMENAGVERTKASSSSGKFKRLKRVGDEGNAAESESDNVAASRQDSTSKLEDFFSEDEEEEESGLRNGRNNEYGRDEEDHENRNRTADKGGILDELDDFIEDDEFSDEDDETRQRRIQEKKLLREQSIKQPTQITGLSSDKIDEMYDIFGDGHDYDWALEIENEELENGNDNNEAEEEEIDEETGAIKSTKKKISLQDIYDLEDLKKNLMTEGDMKIRKTDIPERYQELRAGITDYGNMSSEDQELERNWIAEKISVDKNFDANYDLTEFKEAIGNAIKFITKENLEVPFIYAYRRNYISSREKDGFLLTEDDLWDIVSLDIEFHSLVNKKDYVQRFYAELHIDDPIVTEYFKNQNTASIAELNSLQDIYDYLEFKYANEINEMFINHTGKTGKKHLKNSSYEKFKASPLYQAVSDIGISAEDVGENISSQHQIHPPVDHPSSKPVEVIESILNANSGDLQVFTSNTKLAIDTVQKYYSLELSKNTKIREKVRSDFSKYYLADVVLTAKGKKEIQKGSLYEDIKYAINRTPMHFRRDPDVFLKMVEAESLNLLSVKLHMSSQAQYIEHLFQIALETTNTSDIAIEWNNFRKLAFNQAMDKIFQDISQEVKDNLTKNCQKLVAKTVRHKFMTKLDQAPFIPNVRDPKIPKILSLTCGQGRFGADAIIAVYVNRKGDFIRDYKIVDNPFDKTNPEKFEDTLDNIIQSCQPNAIGINGPNPKTQKFYKRLQEVLHKKQIVDSRGHTIPIIYVEDEVAIRYQNSERAAQEFPNKPPLVKYCIALARYMHSPLLEYANLTSEEVRSLSIHPHQNLLSSEQLSWALETAFVDIVNLVSVEVNKATDNNYYASALKYISGFGKRKAIDFLQSLQRLNEPLLARQQLITHNILHKTIFMNSAGFLYISWNEKRQKYEDLEHDQLDSTRIHPEDYHLATKVAADALEYDPDTIAEKEEQGTMSEFIELLREDPDRRAKLESLNLESYAEELEKNTGLRKLNNLNTIVLELLDGFEELRNDFHPLQGDEIFQSLTGESEKTFFKGSIIPVRVERFWHNDIICTTNSEVECVVNAQRHAGAQLRRPANEIYEIGKTYPAKVIYIDYANITAEVSLLDHDVKQQYVPISYSKDPSIWDLKQELEDAEEERKLMMAEARAKRTHRVINHPYYFPFNGRQAEDYLRSKERGEFVIRQSSRGDDHLVITWKLDKDLFQHIDIQELEKENPLALGKVLIVDNQKYNDLDQIIVEYLQNKVRLLNEMTSSEKFKSGTKKDVVKFIEDYSRVNPNKSVYYFSLNHDNPGWFYLMFKINANSKLYTWNVKLTNTGYFLVNYNYPSVIQLCNGFKTLLKSNSSKNRMNNYR
B4: Zuo1 (protein, UniProt P32527 1-433)
chain: MFSLPTLTSDITVEVNSSATKTPFVRRPVEPVGKFFLQHAQRTLRNHTWSEFERIEAEKNVKTVDESNVDPDELLFDTELADEDLLTHDARDWKTADLYAAMGLSKLRFRATESQIIKAHRKQVVKYHPDKQSAAGGSLDQDGFFKIIQKAFETLTDSNKRAQYDSCDFVADVPPPKKGTDYDFYEAWGPVFEAEARFSKKTPIPSLGNKDSSKKEVEQFYAFWHRFDSWRTFEFLDEDVPDDSSNRDHKRYIERKNKAARDKKKTADNARLVKLVERAVSEDPRIKMFKEEEKKEKERRKWEREAGARAEAEAKAKAEAEAKAKAESEAKANASAKADKKKAKEAAKAAKKKNKRAIRNSAKEADYFGDADKATTIDEQVGLIVDSLNDEELVSTADKIKANAAGAKEVLKESAKTIVDSGKLPSSLLSYFV
B5: Nam7 (protein, UniProt P30771 1-971)
chain: MVGSGSHTPYDISNSPSDVNVQPATQLNSTLVEDDDVDNQLFEEAQVTETGFRSPSASDNSCAYCGIDSAKCVIKCNSCKKWFCNTKNGTSSSHIVNHLVLSHHNVVSLHPDSDLGDTVLECYNCGRKNVFLLGFVSAKSEAVVVLLCRIPCAQTKNANWDTDQWQPLIEDRQLLSWVAEQPTEEEKLKARLITPSQISKLEAKWRSNKDATINDIDAPEEQEAIPPLLLRYQDAYEYQRSYGPLIKLEADYDKQLKESQALEHISVSWSLALNNRHLASFTLSTFESNELKVAIGDEMILWYSGMQHPDWEGRGYIVRLPNSFQDTFTLELKPSKTPPPTHLTTGFTAEFIWKGTSYDRMQDALKKFAIDKKSISGYLYYKILGHQVVDISFDVPLPKEFSIPNFAQLNSSQSNAVSHVLQRPLSLIQGPPGTGKTVTSATIVYHLSKIHKDRILVCAPSNVAVDHLAAKLRDLGLKVVRLTAKSREDVESSVSNLALHNLVGRGAKGELKNLLKLKDEVGELSASDTKRFVKLVRKTEAEILNKADVVCCTCVGAGDKRLDTKFRTVLIDESTQASEPECLIPIVKGAKQVILVGDHQQLGPVILERKAADAGLKQSLFERLISLGHVPIRLEVQYRMNPYLSEFPSNMFYEGSLQNGVTIEQRTVPNSKFPWPIRGIPMMFWANYGREEISANGTSFLNRIEAMNCERIITKLFRDGVKPEQIGVITPYEGQRAYILQYMQMNGSLDKDLYIKVEVASVDAFQGREKDYIILSCVRANEQQAIGFLRDPRRLNVGLTRAKYGLVILGNPRSLARNTLWNHLLIHFREKGCLVEGTLDNLQLCTVQLVRPQPRKTERPMNAQFNVESEMGDFPKFQDFDAQSMVSFSGQIGDFGNAFVDNTELSSYINNEYWNFENFKSAFSQKQNRNEIDDRNLYQEEASHLNSNFARELQREEQKHELSKDFSNLGI
B6: Iki3 (protein, UniProt Q06706 1-1349)
chain: MVEHDKSGSKRQELRSNMRNLITLNKGKFKPTASTAEGDEDDLSFTLLDSVFDTLSDSITCVLGSTDIGAIEVQQFMKDGSRNVLASFNIQTFDDKLLSFVHFADINQLVFVFEQGDIITATYDPVSLDPAETLIEIMGTIDNGIAAAQWSYDEETLAMVTKDRNVVVLSKLFEPISEYHLEVDDLKISKHVTVGWGKKETQFRGKGARAMEREALASLKASGLVGNQLRDPTMPYMVDTGDVTALDSHEITISWRGDCDYFAVSSVEEVPDEDDETKSIKRRAFRVFSREGQLDSASEPVTGMEHQLSWKPQGSLIASIQRKTDLGEEDSVDVIFFERNGLRHGEFDTRLPLDEKVESVCWNSNSEALAVVLANRIQLWTSKNYHWYLKQELYASDISYVKWHPEKDFTLMFSDAGFINIVDFAYKMAQGPTLEPFDNGTSLVVDGRTVNITPLALANVPPPMYYRDFETPGNVLDVACSFSNEIYAAINKDVLIFAAVPSIEEMKKGKHPSIVCEFPKSEFTSEVDSLRQVAFINDSIVGVLLDTDNLSRIALLDIQDITQPTLITIVEVYDKIVLLRSDFDYNHLVYETRDGTVCQLDAEGQLMEITKFPQLVRDFRVKRVHNTSAEDDDNWSAESSELVAFGITNNGKLFANQVLLASAVTSLEITDSFLLFTTAQHNLQFVHLNSTDFKPLPLVEEGVEDERVRAIERGSILVSVIPSKSSVVLQATRGNLETIYPRIMVLAEVRKNIMAKRYKEAFIVCRTHRINLDILHDYAPELFIENLEVFINQIGRVDYLNLFISCLSEDDVTKTKYKETLYSGISKSFGMEPAPLTEMQIYMKKKMFDPKTSKVNKICDAVLNVLLSNPEYKKKYLQTIITAYASQNPQNLSAALKLISELENSEEKDSCVTYLCFLQDVNVVYKSALSLYDVSLALLVAQKSQMDPREYLPFLQELQDNEPLRRKFLIDDYLGNYEKALEHLSEIDKDGNVSEEVIDYVESHDLYKHGLALYRYDSEKQNVIYNIYAKHLSSNQMYTDAAVAYEMLGKLKEAMGAYQSAKRWREAMSIAVQKFPEEVESVAEELISSLTFEHRYVDAADIQLEYLDNVKEAVALYCKAYRYDIASLVAIKAKKDELLEEVVDPGLGEGFGIIAELLADCKGQINSQLRRLRELRAKKEENPYAFYGQETEQADDVSVAPSETSTQESFFTRYTGKTGGTAKTGASRRTAKNKRREERKRARGKKGTIYEEEYLVQSVGRLIERLNQTKPDAVRVVEGLCRRNMREQAHQIQKNFVEVLDLLKANVKEIYSISEKDRERVNENGEVYYIPEIPVPEIHDFPKSHIVDF
B7: Rnr1 (protein, UniProt P21524 1-888)
chain: MYVYKRDGRKEPVQFDKITARISRLCYGLDPKHIDAVKVTQRIISGVYEGVTTIELDNLAAETCAYMTTVHPDYATLAARIAISNLHKQTTKQFSKVVEDLYRYVNAATGKPAPMISDDVYNIVMENKDKLNSAIVYDRDFQYSYFGFKTLERSYLLRINGQVAERPQHLIMRVALGIHGRDIEAALETYNLMSLKYFTHASPTLFNAGTPKPQMSSCFLVAMKEDSIEGIYDTLKECALISKTAGGIGLHIHNIRSTGSYIAGTNGTSNGLIPMIRVFNNTARYVDQGGNKRPGAFALYLEPWHADIFDFIDIRKNHGKEEIRARDLFPALWIPDLFMKRVEENGTWTLFSPTSAPGLSDCYGDEFEALYTRYEKEGRGKTIKAQKLWYSILEAQTETGTPFVVYKDACNRKSNQKNLGVIKSSNLCCEIVEYSAPDETAVCNLASVALPAFIETSEDGKTSTYNFKKLHEIAKVVTRNLNRVIDRNYYPVEEARKSNMRHRPIALGVQGLADTFMLLRLPFDSEEARLLNIQIFETIYHASMEASCELAQKDGPYETFQGSPASQGILQFDMWDQKPYGMWDWDTLRKDIMKHGVRNSLTMAPMPTASTSQILGYNECFEPVTSNMYSRRVLSGEFQVVNPYLLRDLVDLGIWDEGMKQYLITQNGSIQGLPNVPQELKDLYKTVWEISQKTIINMAADRSVYIDQSHSLNLFLRAPTMGKLTSMHFYGWKKGLKTGMYYLRTQAASAAIQFTIDQKIADQATENVADISNLKRPSYMPSSASYAASDFVPAAVTANATIPSLDSSSEASREASPAPTGSHSLTKGMAELNVQESKVEVPEVPAPTKNEEKAAPIVDDEETEFDIYNSKVIACAIDNPEACEMCSG

The target of this assay is 13Myc-tagged Esp1 (S. cerevisiae) (UniProt Q03018). In words: affinity purification with mass spectrometry; one-step IP of Esp1-13Myc from lysate of logarithmically growing yeast with 9E10 anti-Myc antibody cross-linked to Sepharose, 4 h at 4°C, washes with 500mM NaCl; compared by spectral counting with a mock IP from an untagged strain.
Regarding B1, the binding result is reported as “binds”.

Regarding B2, the binding result is on record as “binds”.

Turning to B3, the binding result is on record as “binds”.

B4: the binding result was “binds”.

Regarding B5, the binding result is “binds”.

With B6, the binding entry was “binds”.

B7: the binding result is on record as “binds”.

(Values after publication PMC4378997.)
